B1: SMC1a (structural maintenance of chromosomes 1a) (protein, UniProt Q9CU62 1-1233)
chain: MGFLKLIEIENFKSYKGRQIIGPFQRFTAIIGPNGSGKSNLMDAISFVLGEKTSNLRVKTLRDLIHGAPVGKPAANRAFVSMVYSEEGAEDRTFARVIVGGSSEYKINNKVVQLHEYSEELEKLGILIKARNFLVFQGAVESIAMKNPKERTALFEEISRSGELAQEYDKRKKEMVKAEEDTQFNYHRKKNIAAERKEAKQEKEEADRYQRLKDEVVRAQVQLQLFKLYHNEVEIEKLNKELASKNKEIEKDKKRMDKVEDELKEKKKELGKMMREQQQIEKEIKEKDSELNQKRPQYIKAKENTSHKIKKLEAAKKSLQNAQKHYKKRKGDMDELEKEMLSVEKARQEFEERMEEESQSQGRDLTLEENQVKKYHRLKEEASKRAATLAQELEKFNRDQKADQDRLDLEERKKVETEAKIKQKLREIEENQKRIEKLEEYITTSKQSLEEQKKLEGELTEEVEMAKRRIDEINKELNQVMEQLGDARIDRQESSRQQRKAEIMESIKRLYPGSVYGRLIDLCQPTQKKYQIAVTKVLGKNMDAIIVDSEKTGRDCIQYIKEQRGEPETFLPLDYLEVKPTDEKLRELKGAKLVIDVIRYEPPHIKKALQYACGNALVCDNVEDARRIAFGGHQRHKTVALDGTLFQKSGVISGGASDLKAKARRWDEKAVDKLKEKKERLTEELKEQMKAKRKEAELRQVQSQAHGLQMRLKYSQSDLEQTKTRHLALNLQEKSKLESELANFGPRINDIKRIIQSREREMKDLKEKMNQVEDEVFEEFCREIGVRNIREFEEEKVKRQNEIAKKRLEFENQKTRLGIQLDFEKNQLKEDQDKVHMWEQTVKKDENEIEKLKKEEQRHMKIIDETMAQLQDLKNQHLAKKSEVNDKNHEMEEIRKKLGGANKEMTHLQKEVTAIETKLEQKRSDRHNLLQACKMQDIKLPLSKGTMDDISQEEGSSQGEESVSGSQRTSSIYAREALIEIDYGDLCEDLKDAQAEEEIKQEMNTLQQKLNEQQSVLQRIAAPNMKAMEKLESVRDKFQETSDEFEAARKRAKKAKQAFEQIKKERFDRFNACFESVATNIDEIYKALSRNSSAQAFLGPENPEEPYLDGINYNCVAPGKRFRPMDNLSGGEKTVAALALLFAIHSYKPAPFFVLDEIDAALDNTNIGKVANYIKEQSTCNFQAIVISLKEEFYTKAESLIGVYPEQGDCVISKVLTFDLTKYPDANPNPNEQ

Protein sequences, listed by entry. Tags and fused reporters are not part of them.
UniProt P06537: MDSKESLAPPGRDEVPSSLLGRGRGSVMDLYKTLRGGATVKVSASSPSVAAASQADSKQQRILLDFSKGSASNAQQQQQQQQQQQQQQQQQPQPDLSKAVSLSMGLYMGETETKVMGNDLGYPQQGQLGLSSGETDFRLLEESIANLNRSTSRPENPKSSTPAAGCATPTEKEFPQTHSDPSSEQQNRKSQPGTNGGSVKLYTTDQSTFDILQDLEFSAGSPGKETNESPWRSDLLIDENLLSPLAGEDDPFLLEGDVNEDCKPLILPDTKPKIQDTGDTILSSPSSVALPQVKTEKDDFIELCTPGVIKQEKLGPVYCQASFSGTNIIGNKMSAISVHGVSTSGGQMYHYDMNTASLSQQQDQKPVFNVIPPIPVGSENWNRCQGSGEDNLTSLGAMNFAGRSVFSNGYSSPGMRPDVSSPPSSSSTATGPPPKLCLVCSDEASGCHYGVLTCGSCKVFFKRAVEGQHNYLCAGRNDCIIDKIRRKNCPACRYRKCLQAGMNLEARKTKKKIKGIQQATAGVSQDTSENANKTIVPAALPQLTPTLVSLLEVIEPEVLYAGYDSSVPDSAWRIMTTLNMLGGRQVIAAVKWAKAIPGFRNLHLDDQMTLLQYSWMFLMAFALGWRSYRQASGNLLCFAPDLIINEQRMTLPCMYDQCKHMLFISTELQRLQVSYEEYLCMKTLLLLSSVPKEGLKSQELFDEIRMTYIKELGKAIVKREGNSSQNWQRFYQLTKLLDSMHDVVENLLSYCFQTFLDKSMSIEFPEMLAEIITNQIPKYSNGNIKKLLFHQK
UniProt Q61686: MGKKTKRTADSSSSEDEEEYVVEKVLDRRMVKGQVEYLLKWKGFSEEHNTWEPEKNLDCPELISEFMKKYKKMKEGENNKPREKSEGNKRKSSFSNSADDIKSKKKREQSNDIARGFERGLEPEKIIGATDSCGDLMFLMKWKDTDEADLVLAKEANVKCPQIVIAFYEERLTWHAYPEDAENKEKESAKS
UniProt P23198: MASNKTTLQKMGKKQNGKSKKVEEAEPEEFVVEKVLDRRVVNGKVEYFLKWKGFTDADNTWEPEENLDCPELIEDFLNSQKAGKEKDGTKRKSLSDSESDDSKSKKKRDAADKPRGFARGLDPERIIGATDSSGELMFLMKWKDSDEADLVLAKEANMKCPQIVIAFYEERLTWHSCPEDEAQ
UniProt O88286: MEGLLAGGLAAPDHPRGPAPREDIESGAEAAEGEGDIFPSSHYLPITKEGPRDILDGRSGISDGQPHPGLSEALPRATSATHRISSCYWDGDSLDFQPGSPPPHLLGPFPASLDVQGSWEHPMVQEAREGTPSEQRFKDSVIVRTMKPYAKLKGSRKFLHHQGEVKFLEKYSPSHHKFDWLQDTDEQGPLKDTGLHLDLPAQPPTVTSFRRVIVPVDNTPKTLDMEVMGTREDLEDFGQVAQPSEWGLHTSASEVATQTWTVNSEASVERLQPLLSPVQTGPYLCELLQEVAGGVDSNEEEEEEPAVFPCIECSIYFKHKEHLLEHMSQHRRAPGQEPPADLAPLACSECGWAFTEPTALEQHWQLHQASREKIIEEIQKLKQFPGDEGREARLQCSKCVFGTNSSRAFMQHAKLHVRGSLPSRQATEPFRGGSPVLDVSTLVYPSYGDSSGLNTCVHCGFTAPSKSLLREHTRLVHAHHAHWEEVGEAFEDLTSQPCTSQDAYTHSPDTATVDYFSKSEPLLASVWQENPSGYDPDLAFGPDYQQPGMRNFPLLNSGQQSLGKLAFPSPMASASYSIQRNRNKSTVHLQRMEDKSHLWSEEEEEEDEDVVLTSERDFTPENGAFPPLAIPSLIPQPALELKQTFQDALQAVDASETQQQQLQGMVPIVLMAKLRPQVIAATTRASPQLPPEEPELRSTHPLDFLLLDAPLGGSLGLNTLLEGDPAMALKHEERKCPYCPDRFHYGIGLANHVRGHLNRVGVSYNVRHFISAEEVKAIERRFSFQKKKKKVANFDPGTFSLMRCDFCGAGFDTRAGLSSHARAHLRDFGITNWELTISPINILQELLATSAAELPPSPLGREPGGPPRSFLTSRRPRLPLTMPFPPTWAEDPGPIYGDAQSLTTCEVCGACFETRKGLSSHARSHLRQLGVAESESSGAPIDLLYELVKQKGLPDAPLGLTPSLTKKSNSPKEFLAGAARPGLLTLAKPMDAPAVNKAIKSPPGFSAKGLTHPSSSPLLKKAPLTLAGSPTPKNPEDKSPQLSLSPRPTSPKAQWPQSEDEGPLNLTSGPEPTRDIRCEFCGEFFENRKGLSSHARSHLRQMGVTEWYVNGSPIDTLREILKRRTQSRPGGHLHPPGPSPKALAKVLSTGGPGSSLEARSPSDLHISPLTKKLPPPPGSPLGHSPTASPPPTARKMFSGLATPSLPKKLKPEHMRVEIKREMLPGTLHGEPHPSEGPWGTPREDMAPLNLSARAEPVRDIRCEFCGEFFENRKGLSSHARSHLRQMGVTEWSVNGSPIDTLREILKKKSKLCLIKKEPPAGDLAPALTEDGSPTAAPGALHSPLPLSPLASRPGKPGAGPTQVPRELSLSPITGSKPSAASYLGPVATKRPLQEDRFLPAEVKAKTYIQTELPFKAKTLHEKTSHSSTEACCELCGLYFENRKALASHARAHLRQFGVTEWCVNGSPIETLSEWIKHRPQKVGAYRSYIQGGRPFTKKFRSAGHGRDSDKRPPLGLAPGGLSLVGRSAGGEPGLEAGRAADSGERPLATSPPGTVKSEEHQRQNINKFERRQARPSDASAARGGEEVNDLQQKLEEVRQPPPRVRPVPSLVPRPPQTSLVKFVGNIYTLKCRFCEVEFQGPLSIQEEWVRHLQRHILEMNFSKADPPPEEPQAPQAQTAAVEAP
UniProt Q3U9G9: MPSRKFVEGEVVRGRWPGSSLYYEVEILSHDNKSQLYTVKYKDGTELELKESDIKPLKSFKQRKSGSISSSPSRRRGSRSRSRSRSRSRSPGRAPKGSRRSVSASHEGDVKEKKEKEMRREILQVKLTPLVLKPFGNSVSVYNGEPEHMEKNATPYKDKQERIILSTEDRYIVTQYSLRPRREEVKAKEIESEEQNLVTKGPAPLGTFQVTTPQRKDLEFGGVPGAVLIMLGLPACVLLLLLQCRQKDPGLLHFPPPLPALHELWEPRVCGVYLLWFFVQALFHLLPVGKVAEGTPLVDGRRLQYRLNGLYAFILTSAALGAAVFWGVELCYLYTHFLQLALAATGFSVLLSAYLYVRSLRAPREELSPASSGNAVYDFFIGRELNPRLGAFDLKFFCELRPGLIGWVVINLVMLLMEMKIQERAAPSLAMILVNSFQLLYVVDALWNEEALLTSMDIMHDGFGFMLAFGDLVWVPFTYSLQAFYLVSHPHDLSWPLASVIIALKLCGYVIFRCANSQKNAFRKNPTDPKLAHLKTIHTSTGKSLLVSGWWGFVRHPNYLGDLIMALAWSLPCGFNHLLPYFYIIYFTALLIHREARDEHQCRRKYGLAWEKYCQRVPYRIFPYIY
UniProt Q60974: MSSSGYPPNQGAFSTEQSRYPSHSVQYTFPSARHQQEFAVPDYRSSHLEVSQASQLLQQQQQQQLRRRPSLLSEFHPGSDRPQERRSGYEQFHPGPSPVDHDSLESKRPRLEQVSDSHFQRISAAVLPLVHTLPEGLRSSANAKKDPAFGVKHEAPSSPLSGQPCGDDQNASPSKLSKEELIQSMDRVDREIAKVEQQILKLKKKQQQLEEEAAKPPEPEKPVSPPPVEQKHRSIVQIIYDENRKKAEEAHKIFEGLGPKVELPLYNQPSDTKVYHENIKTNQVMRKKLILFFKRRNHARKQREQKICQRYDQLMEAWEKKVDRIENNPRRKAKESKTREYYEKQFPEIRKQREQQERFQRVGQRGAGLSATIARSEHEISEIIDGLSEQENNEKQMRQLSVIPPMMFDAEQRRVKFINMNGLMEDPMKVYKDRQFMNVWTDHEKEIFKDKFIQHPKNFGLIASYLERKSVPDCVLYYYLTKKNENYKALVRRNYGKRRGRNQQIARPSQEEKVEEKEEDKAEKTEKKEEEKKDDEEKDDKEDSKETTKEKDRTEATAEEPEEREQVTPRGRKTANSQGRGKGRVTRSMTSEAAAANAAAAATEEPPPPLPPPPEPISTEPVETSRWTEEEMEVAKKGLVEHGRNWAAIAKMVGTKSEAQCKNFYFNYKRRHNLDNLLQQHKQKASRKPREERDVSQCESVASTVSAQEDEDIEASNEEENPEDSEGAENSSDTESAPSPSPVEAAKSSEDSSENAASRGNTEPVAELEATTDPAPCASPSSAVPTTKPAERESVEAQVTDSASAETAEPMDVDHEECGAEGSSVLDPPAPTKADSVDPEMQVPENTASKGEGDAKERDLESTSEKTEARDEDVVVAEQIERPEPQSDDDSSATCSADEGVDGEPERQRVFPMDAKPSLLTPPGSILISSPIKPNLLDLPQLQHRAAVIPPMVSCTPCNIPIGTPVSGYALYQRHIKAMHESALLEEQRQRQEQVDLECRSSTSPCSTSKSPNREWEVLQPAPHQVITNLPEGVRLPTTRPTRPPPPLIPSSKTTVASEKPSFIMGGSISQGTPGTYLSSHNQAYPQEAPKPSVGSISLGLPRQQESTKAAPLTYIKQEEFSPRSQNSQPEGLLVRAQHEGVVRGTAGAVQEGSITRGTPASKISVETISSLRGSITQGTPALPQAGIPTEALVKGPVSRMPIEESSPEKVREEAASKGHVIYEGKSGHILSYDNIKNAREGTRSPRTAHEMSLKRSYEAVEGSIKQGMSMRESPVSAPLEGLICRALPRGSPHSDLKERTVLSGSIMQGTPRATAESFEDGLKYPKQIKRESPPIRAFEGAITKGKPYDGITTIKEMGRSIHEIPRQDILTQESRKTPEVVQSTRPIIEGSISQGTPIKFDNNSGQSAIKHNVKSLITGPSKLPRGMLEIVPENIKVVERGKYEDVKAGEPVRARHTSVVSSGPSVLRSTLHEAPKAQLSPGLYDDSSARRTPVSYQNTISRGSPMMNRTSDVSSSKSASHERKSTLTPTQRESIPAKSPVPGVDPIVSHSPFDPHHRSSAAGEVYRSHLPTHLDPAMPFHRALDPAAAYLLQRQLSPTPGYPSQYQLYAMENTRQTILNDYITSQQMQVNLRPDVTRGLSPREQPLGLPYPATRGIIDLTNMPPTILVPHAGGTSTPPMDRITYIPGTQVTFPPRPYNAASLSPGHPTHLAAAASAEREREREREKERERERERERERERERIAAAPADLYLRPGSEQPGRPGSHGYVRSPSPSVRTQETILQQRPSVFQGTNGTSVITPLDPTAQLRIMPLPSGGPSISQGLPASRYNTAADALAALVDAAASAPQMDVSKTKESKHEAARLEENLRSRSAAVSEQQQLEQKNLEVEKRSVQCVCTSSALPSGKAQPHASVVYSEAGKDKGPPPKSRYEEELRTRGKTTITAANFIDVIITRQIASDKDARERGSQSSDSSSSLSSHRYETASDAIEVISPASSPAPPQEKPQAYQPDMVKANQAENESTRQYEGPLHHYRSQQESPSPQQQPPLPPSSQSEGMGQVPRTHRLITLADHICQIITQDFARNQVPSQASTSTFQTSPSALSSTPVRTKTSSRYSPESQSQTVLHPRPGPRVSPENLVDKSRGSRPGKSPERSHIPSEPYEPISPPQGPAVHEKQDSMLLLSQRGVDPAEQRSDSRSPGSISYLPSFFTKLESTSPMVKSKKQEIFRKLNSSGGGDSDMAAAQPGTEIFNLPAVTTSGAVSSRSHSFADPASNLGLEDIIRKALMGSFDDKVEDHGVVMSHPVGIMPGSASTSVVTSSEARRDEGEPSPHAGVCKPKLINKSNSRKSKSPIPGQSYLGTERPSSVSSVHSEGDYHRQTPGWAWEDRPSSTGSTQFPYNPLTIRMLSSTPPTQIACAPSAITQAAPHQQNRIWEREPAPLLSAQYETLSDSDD

This passage reports binding results from paper PMC8967222.

These are yes or no findings as the source states them, for the method shown. Binding seen in cells or lysates may run through a third protein. A yes stands for co-enrichment or nearness to the bait. Other partners may have been found.

The experiment deals with glucocorticoid (GC) receptor (GR) (mouse (endogenous in 3134 mammary carcinoma cells)) (UniProt P06537). The experiment in a line: affinity purification with mass spectrometry; ChIP-SICAP: cells treated with hormone or EtOH for 1 hour, fixed 13 min with 1% paraformaldehyde, chromatin sonicated to 500 bp, GR antibody beads overnight at 4°C, DNA tagged with ddUTP-biotin, streptavidin capture, label-free DIA mass spectrometry.
For the molecule “HP1-alpha (Cbx5) (from UniProt Q61686 1-191)”, the binding result was “binds”.
Consider “HP1-gamma (Cbx3) (from UniProt P23198 1-183)”, for which the binding result is on record as “binds”.
The result for WIZ (from UniProt O88286 1-1684) reads “binds”; that for “cohesin loader NIPBL (from UniProt Q6KCD5 1-2798)”, “binds”.
With “lamin B receptor (from UniProt Q3U9G9 1-626)”, the binding entry is “binds”.
In the case of “nuclear receptor corepressor 1 (from UniProt Q60974 1-2453)”, the binding result is “binds”.
The result for B1 reads “binds”.
